Laboratory results reported in PubChem BioAssay AID248 (DTP/NCI, 2004).
The list is a part of this screen's results and no random one: it gathers tests that were run many times, whatever their T/C, doses with no T/C, and many T/C values between a quarter and a half above the control. Further doses and runs are listed elsewhere. T/C gives the treated animals as a percentage of the vehicle group. Some doses have a count of surviving animals in place of a T/C: the source files T/C as zero there, which appears to mark a toxic dose or a test without result, not a measured value. Some doses without a T/C left all or most animals alive at the check, yet need not have been tolerated: the source hardly ever lists a survival T/C far under the control, and the zero likely stands for such cases as well. Survivors were counted at the toxicity check, usually on the fifth day, unless a day is given; later deaths do not show. Schedules are NCI's codes, read here as Q, the interval in days (D) or hours (H), X, the number of doses. Some schedules carry Z or #; the key to these is not given. Where survival is the endpoint, this PubChem deposit counts one and a half times the control or more as active, and values a quarter to a half above the control carry no call in these data; other NCI protocols may use other cut-offs.

Test system: L1210 leukemia ip in BDF1 mice, survival T/C
Experiment: NCI In Vivo Anticancer Drug Screen. Data for tumor model L1210 Leukemia (intraperitoneal) in B6D2F1 (BDF1) mice
Settings: T/C endpoint: mean survival time, higher T/C = longer survival
[1] = dose: 400.0 mg/kg/injection, schedule: Q04DX003 (ip), vehicle: saline
[2] = dose: 200.0 mg/kg/injection, schedule: Q01DX001 (ip), vehicle: saline
[3] = dose: 400.0 mg/kg/injection, schedule: Q01DX001 (ip), vehicle: saline
[4] = dose: 200.0 mg/kg/injection, schedule: Q04DX003 (ip), vehicle: saline
[5] = dose: 200.0 mg/kg/injection, schedule: Q01DX009 (ip), vehicle: saline
[6] = dose: 100.0 mg/kg/injection, schedule: Q01DX Z (ip), vehicle: saline
[7] = dose: 300.0 mg/kg/injection, schedule: Q01DX Z (ip), vehicle: saline
[8] = dose: 400.0 mg/kg/injection, schedule: Q01DX009 (ip), vehicle: Klucel (hydroxypropylcellulose) (HPC)
[9] = dose: 400.0 mg/kg/injection, schedule: Q01DX009 (ip), vehicle: saline with Tween-80
[10] = dose: 400.0 mg/kg/injection, schedule: Q04DX003 (ip), vehicle: saline with Tween-80
[11] = dose: 50.0 mg/kg/injection, schedule: Q04DX002 (ip), vehicle: Klucel (hydroxypropylcellulose) (HPC)
[12] = dose: 100.0 mg/kg/injection, schedule: Q04DX002 (ip), vehicle: Klucel (hydroxypropylcellulose) (HPC)
[13] = dose: 200.0 mg/kg/injection, schedule: Q04DX002 (ip), vehicle: Klucel (hydroxypropylcellulose) (HPC)
[14] = dose: 400.0 mg/kg/injection, schedule: Q04DX002 (ip), vehicle: Klucel (hydroxypropylcellulose) (HPC)
[15] = dose: 200.0 mg/kg/injection, schedule: Q01DX009 (ip), vehicle: Klucel (hydroxypropylcellulose) (HPC)

ClCCNCc1cccc(Nc2ccnc3cc(Cl)ccc23)c1
survivor count (dose: 300.0 mg/kg/injection, schedule: Q01DX001 (ip), vehicle: carboxymethylcellulose (CMC)): 2 of 6

CCCCCCC1=NC(C)(C)CO1
survivor count [1]: 0 of 6

O=C(CCl)C1C(O)=[N+](c2ccccc2)C2C=CC=CN12 (configuration not stated)
survivor count [2]: 2 of 6
survivor count [3]: 3 of 6

CNCCN(C)Cc1ccccc1
survivor count [4]: 1 of 6
survivor count [1]: 0 of 6

COc1cccc(N=CN(C)C)c1
survivor count [2]: 2 of 4
survivor count [3]: 0 of 4

CCN(CC)CCOc1cccc(Oc2ccccc2)c1
survivor count [5]: 0 of 6
survivor count [4]: 4 of 6
survivor count [1]: 0 of 6

COc1ccc2c(c1)c1c(C)c3cnccc3c(C)c1n2CC1CO1 (configuration not stated)
survivor count (dose: 18.7 mg/kg/injection, schedule: Q01DX009 (ip), vehicle: saline with Tween-80): 6 of 6
survivor count (dose: 37.5 mg/kg/injection, schedule: Q01DX009 (ip), vehicle: saline with Tween-80): 6 of 6
T/C (dose: 37.5 mg/kg/injection, schedule: Q04DX003 (ip), vehicle: saline with Tween-80): 130 % of control
survivor count (dose: 75.0 mg/kg/injection, schedule: Q04DX003 (ip), vehicle: saline with Tween-80): 6 of 6
survivor count (dose: 150.0 mg/kg/injection, schedule: Q04DX003 (ip), vehicle: saline): 10 of 10
survivor count (dose: 300.0 mg/kg/injection, schedule: Q04DX003 (ip), vehicle: saline): 10 of 10

CC(C(O)c1ccccc1)[n+]1ccccc1 (configuration not stated)
survivor count (dose: 150.0 mg/kg/injection, schedule: Q01DX001 (ip), vehicle: saline): 0 of 6
survivor count (dose: 300.0 mg/kg/injection, schedule: Q01DX001 (ip), vehicle: saline): 0 of 6

COC(=O)C(NC(=O)C(N)CSC(c1ccccc1)(c1ccccc1)c1ccccc1)C(C)C (configuration not stated)
T/C (dose: 100.0 mg/kg/injection, schedule: Q01DX009 (ip), vehicle: saline): 130 % of control
T/C [5]: 127 % of control
survivor count [5]: 1 of 8
survivor count (dose: 400.0 mg/kg/injection, schedule: Q01DX009 (ip), vehicle: saline): 3 of 8

C/C(=C\Cl)COC(C)(C)C
survivor count (dose: 400.0 mg/kg/injection, schedule: Q01DX001 (ip), vehicle: saline with Tween-80): 0 of 6

N#Cc1ccc[n+](CCCl)c1
survivor count (dose: 10.0 mg/kg/injection, schedule: Q01DX Z (ip), vehicle: saline): 0 of 6
survivor count [6]: 6 of 6
survivor count [7]: 0 of 6

O=C(N/N=C/c1ccc(Cl)c(Cl)c1)c1cccc2ccccc12
survivor count [2]: 4 of 4

COc1cc2nc3cc([N+](=O)[O-])ccc3c(Cl)c2cc1OC
survivor count [8]: 6 of 6

CC(C)(C)c1cccc(Cl)c1O
survivor count (dose: 200.0 mg/kg/injection, schedule: Q01DX009 (ip), vehicle: saline with Tween-80): 3 of 6
survivor count [9]: 0 of 6

O=C(Nc1ccc([N+](=O)[O-])cn1)Nc1cc([N+](=O)[O-])ccc1F
survivor count (dose: 100.0 mg/kg/injection, schedule: Q04DX003 (ip), vehicle: Klucel (hydroxypropylcellulose) (HPC)): 6 of 6
survivor count [8]: 3 of 3

O/C(=C\C(=S)S)c1ccc(Cl)cc1
survivor count (dose: 4.0 mg/kg/injection, schedule: Q01DX009 (ip), vehicle: saline with Tween-80): 3 of 6
survivor count (dose: 12.5 mg/kg/injection, schedule: Q04DX003 (ip), vehicle: saline with Tween-80): 3 of 6
survivor count (dose: 25.0 mg/kg/injection, schedule: Q04DX003 (ip), vehicle: saline with Tween-80): 1 of 6
survivor count (dose: 50.0 mg/kg/injection, schedule: Q04DX003 (ip), vehicle: saline with Tween-80): 0 of 6
survivor count (dose: 100.0 mg/kg/injection, schedule: Q04DX003 (ip), vehicle: saline with Tween-80): 0 of 6
survivor count (dose: 200.0 mg/kg/injection, schedule: Q04DX003 (ip), vehicle: saline with Tween-80): 0 of 6
survivor count [10]: 0 of 6

COc1ccc(C)cc1NC(=O)c1c(Br)c(Br)c(Br)c(Br)c1C(=O)O
survivor count [8]: 1 of 6

CCCCN(CCCC)CCNc1cc(C)nc(/N=C(\N)Nc2ccc(Cl)c(Cl)c2)n1
survivor count (dose: 150.0 mg/kg/injection, schedule: Q01DX009 (ip), vehicle: other): 1 of 6

NC(CSS(=O)(=O)O)=NCC12CC3CC(CC(C3)C1)C2
survivor count [11]: 0 of 3
survivor count [12]: 2 of 3
survivor count [13]: 3 of 3
survivor count [14]: 0 of 3

NC(=O)c1ccccc1NC(=O)Nc1cccc(F)c1
survivor count (dose: 100.0 mg/kg/injection, schedule: Q01DX009 (ip), vehicle: saline with Tween-80): 3 of 6

O=C1C(=O)c2ccccc2C=C1Br
survivor count (dose: 400.0 mg/kg/injection, schedule: Q04DX003 (ip), vehicle: Klucel (hydroxypropylcellulose) (HPC)): 4 of 6

O=C(CCCN1CCC(O)CC1)c1ccccc1
survivor count [1]: 1 of 6

COc1ccc(OC)c(NC(=S)NC(=O)c2ccccc2F)c1
survivor count [9]: 6 of 6

COc1cc(C(=O)N2CC2)cc(OC)c1OC
survivor count (dose: 100.0 mg/kg/injection, schedule: Q01DX009 (ip), vehicle: water): 5 of 6
survivor count (dose: 200.0 mg/kg/injection, schedule: Q01DX009 (ip), vehicle: water): 0 of 6
survivor count (dose: 400.0 mg/kg/injection, schedule: Q01DX009 (ip), vehicle: water): 0 of 6

Cc1c2c(cc3c1[nH]c1ccccc13)C(C)N(C)CC2 (configuration not stated)
T/C (dose: 50.0 mg/kg/injection, schedule: Q01DX Z (ip), vehicle: saline): 144 % of control
T/C [6]: 145 % of control
survivor count (dose: 375.0 mg/kg/injection, schedule: Q01DX001 (ip), vehicle: carboxymethylcellulose (CMC)): 2 of 6

O=C(O)/C=C\C(=O)Nc1ccc(O)cc1
T/C [7]: 136 % of control

COC(=O)Nc1cccc2c1C=CC(C#N)N2C(=O)OC (configuration not stated)
survivor count [8]: 1 of 6

CCc1ccc(/C(C#N)=C/c2ccc(N(C)CCC#N)cc2)cc1
survivor count (dose: 100.0 mg/kg/injection, schedule: Q01DX009 (ip), vehicle: Klucel (hydroxypropylcellulose) (HPC)): 6 of 6
survivor count [15]: 6 of 6
survivor count [8]: 6 of 6

CCCCNC(C)(C)COC(=O)/C=C/c1ccc(OCCCC)cc1
survivor count [3]: 0 of 4
survivor count (dose: 400.0 mg/kg/injection, schedule: Q01DX015 (ip), vehicle: saline): 2 of 6
survivor count [10]: 0 of 6

CC(=O)CC(C)(C)N
survivor count [10]: 2 of 6

CC12CC3CC(Br)(C1)CC(C#N)(C3)C2 (configuration not stated)
survivor count (dose: 25.0 mg/kg/injection, schedule: Q04DX002 (ip), vehicle: Klucel (hydroxypropylcellulose) (HPC)): 3 of 3
survivor count [11]: 3 of 3
survivor count [12]: 0 of 3
survivor count [13]: 0 of 3
survivor count [14]: 0 of 3

CC/C(=C(\CC)c1ccc(OC)cc1)c1ccc(OC)cc1
survivor count (dose: 100.0 mg/kg/injection, schedule: Q04DX003 (ip), vehicle: saline): 6 of 6
survivor count [1]: 6 of 6

CC1(C(N)=O)CC2C=CC1C2 (configuration not stated)
T/C (dose: 100.0 mg/kg/injection, schedule: Q01DX001 (ip), vehicle: carboxymethylcellulose (CMC)): 148 % of control

CC(=O)Nc1c(CCCCc2ccccc2)[nH]c(=O)[nH]c1=O
survivor count (dose: 200.0 mg/kg/injection, schedule: Q01DX001 (ip), vehicle: Klucel (hydroxypropylcellulose) (HPC)): 3 of 3
survivor count (dose: 400.0 mg/kg/injection, schedule: Q01DX001 (ip), vehicle: Klucel (hydroxypropylcellulose) (HPC)): 1 of 3

CCOC(=O)c1nc2c(OC)nn(O)cc-2c1[N+](=O)[O-]
survivor count (dose: 50.0 mg/kg/injection, schedule: Q04DX002 (ip), vehicle: saline with Tween-80): 3 of 3

CCCCOc1ccc(C=Nc2ccc(C)cc2)cc1
survivor count [15]: 6 of 6
